Experimental data as given in publication doi:10.1101/2021.08.06.455464.
Results are given in words; binding and its absence hold for the method and conditions named. In cells and extracts the contact can be indirect. Here binding means that the protein was enriched with, or labelled near, the bait; the list need not be complete.

Target: GFP-G3BP1 (Ras-GTPase activating SH3 domain binding protein 1) (UniProt Q13283)
Assay: affinity purification with mass spectrometry

Row | Binder | binding
1 | DDX1 (protein, UniProt Q92499 1-740) MAAFSEMGVMPEIAQAVEEMDWLLPTDIQAESIPLILGGGDVLMAAETGSGKTGAFSIPVIQIVYETLKDQQEGKKGKTTIKTGASVLNKWQMNPYDRGSAFAIGSDGLCCQSREVKEWHGCRATKGLMKGKHYYEVSCHDQGLCRVGWSTMQASLDLGTDKFGFGFGGTGKKSHNKQFDNYGEEFTMHDTIGCYLDIDKGHVKFSKNGKDLGLAFEIPPHMKNQALFPACVLKNAELKFNFGEEEFKFPPKDGFVALSKAPDGYIVKSQHSGNAQVTQTKFLPNAPKALIVEPSRELAEQTLNNIKQFKKYIDNPKLRELLIIGGVAARDQLSVLENGVDIVVGTPGRLDDLVSTGKLNLSQVRFLVLDEADGLLSQGYSDFINRMHNQIPQVTSDGKRLQVIVCSATLHSFDVKKLSEKIMHFPTWVDLKGEDSVPDTVHHVVVPVNPKTDRLWERLGKSHIRTDDVHAKDNTRPGANSPEMWSEAIKILKGEYAVRAIKEHKMDQAIIFCRTKIDCDNLEQYFIQQGGGPDKKGHQFSCVCLHGDRKPHERKQNLERFKKGDVRFLICTDVAARGIDIHGVPYVINVTLPDEKQNYVHRIGRVGRAERMGLAISLVATEKEKVWYHVCSSRGKGCYNTRLKEDGGCTIWYNEMQLLSEIEEHLNCTISQVEPDIKVPVDEFDGKVTYGQKRAAGGGSYKGHVDILAPTVQELAALEKEAQTSFLHLGYLPNQLFRTF | binds
2 | G3BP2 (protein, UniProt Q9UN86 1-482) MVMEKPSPLLVGREFVRQYYTLLNKAPEYLHRFYGRNSSYVHGGVDASGKPQEAVYGQNDIHHKVLSLNFSECHTKIRHVDAHATLSDGVVVQVMGLLSNSGQPERKFMQTFVLAPEGSVPNKFYVHNDMFRYEDEVFGDSEPELDEESEDEVEEEQEERQPSPEPVQENANSGYYEAHPVTNGIEEPLEESSHEPEPEPESETKTEELKPQVEEKNLEELEEKSTTPPPAEPVSLPQEPPKAFSWASVTSKNLPPSGTVSSSGIPPHVKAPVSQPRVEAKPEVQSQPPRVREQRPRERPGFPPRGPRPGRGDMEQNDSDNRRIIRYPDSHQLFVGNLPHDIDENELKEFFMSFGNVVELRINTKGVGGKLPNFGFVVFDDSEPVQRILIAKPIMFRGEVRLNVEEKKTRAARERETRGGGDDRRDIRRNDRGPGGPRGIVGGGMMRDRDGRGPPPRGGMAQKLGSGRGTGQMEGRFTGQRR | binds
3 | SRSF7 (protein, UniProt Q16629 1-238) MSRYGRYGGETKVYVGNLGTGAGKGELERAFSYYGPLRTVWIARNPPGFAFVEFEDPRDAEDAVRGLDGKVICGSRVRVELSTGMPRRSRFDRPPARRPFDPNDRCYECGEKGHYAYDCHRYSRRRRSRSRSRSHSRSRGRRYSRSRSRSRGRRSRSASPRRSRSISLRRSRSASLRRSRSGSIKGSRYFQSPSRSRSRSRSISRPRSSRSKSRSPSPKRSRSPSGSPRRSASPERMD | binds
